# At least one structure is not confirmed: it was looked up by name or label, or the drawing left a doubt.
# Assay: X-ray diffraction pattern (degree of crystallinity of encapsulated drug)
# Assay type: physicochemical
# Details: FIGS. 1-3
structure (smiles),measurement,value
"C[C@H]1C[C@H]2[C@@H]3CCC4=CC(=O)C=C[C@]4(C)[C@@]3(F)[C@@H](O)C[C@]2(C)[C@@]1(O)C(=O)CO [betamethasone powder, betamethasone]",degree of crystallinity (diffraction pattern),very crystalline
